The target in assay [1] is T1, CV-HA (transiently expressed in tobacco leaves) (Arabidopsis thaliana) (UniProt Q8S8K8).
T1 sequence: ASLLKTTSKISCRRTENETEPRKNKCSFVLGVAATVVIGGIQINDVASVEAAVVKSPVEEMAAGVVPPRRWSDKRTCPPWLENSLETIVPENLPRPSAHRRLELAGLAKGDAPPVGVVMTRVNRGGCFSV
The assay can be described thus: co-IP.

The chains behind the UniProt entries cited, without tags or fusion partners.
UniProt P25858: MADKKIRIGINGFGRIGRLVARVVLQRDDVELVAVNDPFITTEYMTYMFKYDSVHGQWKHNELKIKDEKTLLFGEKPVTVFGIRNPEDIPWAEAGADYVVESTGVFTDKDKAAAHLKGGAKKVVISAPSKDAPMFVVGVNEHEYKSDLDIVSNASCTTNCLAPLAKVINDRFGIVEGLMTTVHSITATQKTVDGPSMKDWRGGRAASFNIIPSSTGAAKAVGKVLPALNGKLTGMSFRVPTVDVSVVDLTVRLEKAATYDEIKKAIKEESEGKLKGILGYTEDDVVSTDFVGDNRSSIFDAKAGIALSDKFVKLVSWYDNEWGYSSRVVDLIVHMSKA
UniProt Q0WNJ6: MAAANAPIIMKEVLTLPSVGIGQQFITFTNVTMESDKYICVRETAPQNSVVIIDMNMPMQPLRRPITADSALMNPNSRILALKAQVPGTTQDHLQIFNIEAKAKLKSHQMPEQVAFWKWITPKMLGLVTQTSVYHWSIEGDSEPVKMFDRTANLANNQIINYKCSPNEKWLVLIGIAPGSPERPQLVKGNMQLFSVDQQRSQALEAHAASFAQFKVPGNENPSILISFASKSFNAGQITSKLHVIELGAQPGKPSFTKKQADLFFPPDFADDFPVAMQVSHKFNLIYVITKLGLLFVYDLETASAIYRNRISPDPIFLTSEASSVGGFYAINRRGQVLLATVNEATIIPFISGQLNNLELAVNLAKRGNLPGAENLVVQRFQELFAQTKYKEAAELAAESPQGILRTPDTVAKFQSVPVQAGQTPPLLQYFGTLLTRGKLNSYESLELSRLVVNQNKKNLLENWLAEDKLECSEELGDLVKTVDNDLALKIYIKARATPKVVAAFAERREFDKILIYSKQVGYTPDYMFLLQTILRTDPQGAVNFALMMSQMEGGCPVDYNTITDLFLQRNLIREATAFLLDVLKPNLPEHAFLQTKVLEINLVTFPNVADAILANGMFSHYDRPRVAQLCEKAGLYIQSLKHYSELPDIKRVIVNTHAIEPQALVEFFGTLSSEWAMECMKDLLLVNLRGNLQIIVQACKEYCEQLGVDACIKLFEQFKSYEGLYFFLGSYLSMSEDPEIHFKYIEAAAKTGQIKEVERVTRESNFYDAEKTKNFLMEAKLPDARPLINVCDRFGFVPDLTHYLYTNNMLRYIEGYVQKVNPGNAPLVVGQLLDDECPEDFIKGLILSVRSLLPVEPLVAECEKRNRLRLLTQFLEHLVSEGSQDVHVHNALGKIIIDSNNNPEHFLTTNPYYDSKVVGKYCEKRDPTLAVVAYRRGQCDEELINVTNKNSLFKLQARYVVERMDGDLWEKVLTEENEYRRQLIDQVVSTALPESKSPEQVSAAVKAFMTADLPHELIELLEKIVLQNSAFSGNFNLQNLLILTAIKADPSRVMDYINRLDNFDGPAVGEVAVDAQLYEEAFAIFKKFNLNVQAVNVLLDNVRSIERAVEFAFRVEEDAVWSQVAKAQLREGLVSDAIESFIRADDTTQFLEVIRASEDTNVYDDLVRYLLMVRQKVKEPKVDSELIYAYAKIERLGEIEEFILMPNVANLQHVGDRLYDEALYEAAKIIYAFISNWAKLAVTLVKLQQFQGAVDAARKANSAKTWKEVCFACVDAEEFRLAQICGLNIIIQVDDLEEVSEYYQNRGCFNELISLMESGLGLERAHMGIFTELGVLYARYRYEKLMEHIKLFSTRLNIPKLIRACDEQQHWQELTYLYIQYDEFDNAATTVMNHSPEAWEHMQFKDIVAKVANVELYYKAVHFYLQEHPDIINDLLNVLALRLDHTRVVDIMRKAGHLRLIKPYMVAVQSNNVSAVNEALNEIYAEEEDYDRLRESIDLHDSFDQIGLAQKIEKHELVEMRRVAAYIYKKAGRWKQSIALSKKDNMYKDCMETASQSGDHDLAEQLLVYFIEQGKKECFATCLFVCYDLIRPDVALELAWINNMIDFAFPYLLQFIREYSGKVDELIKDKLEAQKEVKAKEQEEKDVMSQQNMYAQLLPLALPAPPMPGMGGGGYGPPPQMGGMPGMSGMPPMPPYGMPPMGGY
UniProt Q0WLB5: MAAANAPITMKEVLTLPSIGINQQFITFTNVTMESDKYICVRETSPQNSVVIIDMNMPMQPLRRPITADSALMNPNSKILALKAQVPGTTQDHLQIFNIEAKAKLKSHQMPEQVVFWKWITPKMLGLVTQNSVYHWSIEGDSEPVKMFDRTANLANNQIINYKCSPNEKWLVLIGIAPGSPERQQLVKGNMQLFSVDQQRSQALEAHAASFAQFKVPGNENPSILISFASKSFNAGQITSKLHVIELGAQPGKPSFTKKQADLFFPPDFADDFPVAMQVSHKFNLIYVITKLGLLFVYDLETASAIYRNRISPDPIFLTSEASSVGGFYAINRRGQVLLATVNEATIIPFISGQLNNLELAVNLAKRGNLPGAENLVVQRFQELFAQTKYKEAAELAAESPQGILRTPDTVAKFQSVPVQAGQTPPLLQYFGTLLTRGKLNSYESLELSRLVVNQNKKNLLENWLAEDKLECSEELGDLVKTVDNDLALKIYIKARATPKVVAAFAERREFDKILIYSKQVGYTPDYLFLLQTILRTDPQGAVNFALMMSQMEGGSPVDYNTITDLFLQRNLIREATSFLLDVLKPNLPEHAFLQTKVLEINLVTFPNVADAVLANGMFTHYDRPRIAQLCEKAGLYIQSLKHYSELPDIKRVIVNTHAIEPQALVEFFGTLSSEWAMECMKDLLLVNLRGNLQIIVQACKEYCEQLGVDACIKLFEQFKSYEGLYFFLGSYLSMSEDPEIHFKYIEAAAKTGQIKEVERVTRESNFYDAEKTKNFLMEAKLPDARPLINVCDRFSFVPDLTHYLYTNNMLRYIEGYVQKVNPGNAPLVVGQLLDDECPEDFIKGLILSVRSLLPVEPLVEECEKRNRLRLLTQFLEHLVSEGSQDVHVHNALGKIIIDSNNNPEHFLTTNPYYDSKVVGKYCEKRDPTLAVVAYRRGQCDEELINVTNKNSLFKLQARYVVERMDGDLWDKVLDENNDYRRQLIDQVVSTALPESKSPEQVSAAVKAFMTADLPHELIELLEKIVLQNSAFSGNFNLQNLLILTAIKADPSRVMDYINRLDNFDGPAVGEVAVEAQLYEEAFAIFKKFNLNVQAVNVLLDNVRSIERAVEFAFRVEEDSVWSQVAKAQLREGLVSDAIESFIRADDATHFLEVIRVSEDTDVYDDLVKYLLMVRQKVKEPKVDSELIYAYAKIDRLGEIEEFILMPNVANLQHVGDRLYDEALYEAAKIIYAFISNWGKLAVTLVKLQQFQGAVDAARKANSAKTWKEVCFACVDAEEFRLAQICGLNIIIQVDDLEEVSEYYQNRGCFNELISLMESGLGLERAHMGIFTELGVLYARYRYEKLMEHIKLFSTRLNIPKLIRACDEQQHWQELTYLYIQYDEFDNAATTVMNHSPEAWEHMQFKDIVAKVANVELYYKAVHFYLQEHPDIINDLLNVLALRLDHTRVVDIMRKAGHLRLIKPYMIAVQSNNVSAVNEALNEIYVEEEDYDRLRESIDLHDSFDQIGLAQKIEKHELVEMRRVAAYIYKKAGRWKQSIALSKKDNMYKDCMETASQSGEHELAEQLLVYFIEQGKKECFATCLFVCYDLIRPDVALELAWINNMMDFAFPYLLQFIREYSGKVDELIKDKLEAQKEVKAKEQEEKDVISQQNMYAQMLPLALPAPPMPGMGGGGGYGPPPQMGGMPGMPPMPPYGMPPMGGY

In assay [2] the target is T2, CV-nYFP (Arabidopsis thaliana) (UniProt Q8S8K8).
T2 sequence: T1 sequence
The assay can be described thus: split reporter.

Assay [3] deals with T3, nYFP-CV (Arabidopsis thaliana) (UniProt Q8S8K8).
T3 sequence: T1 sequence
The assay can be described thus: split reporter.

These are yes or no findings as the source states them, for the method shown. In cells and extracts the contact can be indirect. Some entries that bind do so weakly or less than the wild type. Sequences can lack the tags named with a protein.

Consider “GAPC1-FLAG (GAPC1-6×FLAG, transiently expressed in tobacco leaves) (from UniProt P25858 1-338) (enzyme)”, for which, in assay [1], the binding result is recorded as “binds”.
As for cYFP-CHC1 (from UniProt Q0WNJ6 1-1705), the binding entry in assay [2] was “binds”.
On to cYFP-CHC2 (from UniProt Q0WLB5 1-1703), for which the binding entry in assay [2] and in assay [3] was “binds” throughout.
Consider “cYFP-GAPC1 (from UniProt P25858 1-338) (enzyme)”, for which the binding entry in assay [2] is on record as “binds”.

The values above are taken from publication doi:10.1101/2021.12.02.470903.
